Experimental data published in PubChem BioAssay AID2662 (National Center for Advancing Translational Sciences (NCATS), 2010).
Among all 290,000 compounds or so, about 110 (0.038%) were called active. The inconclusive results got no clear call from the source; some entries with a clear call stand among them for comparison. Calls come from the whole dose curve; as a rule, active = well fitted inhibition curve with a large enough effect in the polarisation, with a control signal flat (not every such curve was filed as active); inconclusive = small, poorly fitted or top-dose-only effect, or effect the other way, or a change in a side signal; inactive = no such curve, though single readings can be large or run the other way; the % refers to the polarisation. A potency beside an inconclusive call is a rough fit, not a confirmed value. “Side channel” marks fits to a control or component signal instead of the main read-out.

Sequences of proteins named here, by UniProt entry; tags and fusion partners are left off.
UniProt Q03164, whole entry, looked up: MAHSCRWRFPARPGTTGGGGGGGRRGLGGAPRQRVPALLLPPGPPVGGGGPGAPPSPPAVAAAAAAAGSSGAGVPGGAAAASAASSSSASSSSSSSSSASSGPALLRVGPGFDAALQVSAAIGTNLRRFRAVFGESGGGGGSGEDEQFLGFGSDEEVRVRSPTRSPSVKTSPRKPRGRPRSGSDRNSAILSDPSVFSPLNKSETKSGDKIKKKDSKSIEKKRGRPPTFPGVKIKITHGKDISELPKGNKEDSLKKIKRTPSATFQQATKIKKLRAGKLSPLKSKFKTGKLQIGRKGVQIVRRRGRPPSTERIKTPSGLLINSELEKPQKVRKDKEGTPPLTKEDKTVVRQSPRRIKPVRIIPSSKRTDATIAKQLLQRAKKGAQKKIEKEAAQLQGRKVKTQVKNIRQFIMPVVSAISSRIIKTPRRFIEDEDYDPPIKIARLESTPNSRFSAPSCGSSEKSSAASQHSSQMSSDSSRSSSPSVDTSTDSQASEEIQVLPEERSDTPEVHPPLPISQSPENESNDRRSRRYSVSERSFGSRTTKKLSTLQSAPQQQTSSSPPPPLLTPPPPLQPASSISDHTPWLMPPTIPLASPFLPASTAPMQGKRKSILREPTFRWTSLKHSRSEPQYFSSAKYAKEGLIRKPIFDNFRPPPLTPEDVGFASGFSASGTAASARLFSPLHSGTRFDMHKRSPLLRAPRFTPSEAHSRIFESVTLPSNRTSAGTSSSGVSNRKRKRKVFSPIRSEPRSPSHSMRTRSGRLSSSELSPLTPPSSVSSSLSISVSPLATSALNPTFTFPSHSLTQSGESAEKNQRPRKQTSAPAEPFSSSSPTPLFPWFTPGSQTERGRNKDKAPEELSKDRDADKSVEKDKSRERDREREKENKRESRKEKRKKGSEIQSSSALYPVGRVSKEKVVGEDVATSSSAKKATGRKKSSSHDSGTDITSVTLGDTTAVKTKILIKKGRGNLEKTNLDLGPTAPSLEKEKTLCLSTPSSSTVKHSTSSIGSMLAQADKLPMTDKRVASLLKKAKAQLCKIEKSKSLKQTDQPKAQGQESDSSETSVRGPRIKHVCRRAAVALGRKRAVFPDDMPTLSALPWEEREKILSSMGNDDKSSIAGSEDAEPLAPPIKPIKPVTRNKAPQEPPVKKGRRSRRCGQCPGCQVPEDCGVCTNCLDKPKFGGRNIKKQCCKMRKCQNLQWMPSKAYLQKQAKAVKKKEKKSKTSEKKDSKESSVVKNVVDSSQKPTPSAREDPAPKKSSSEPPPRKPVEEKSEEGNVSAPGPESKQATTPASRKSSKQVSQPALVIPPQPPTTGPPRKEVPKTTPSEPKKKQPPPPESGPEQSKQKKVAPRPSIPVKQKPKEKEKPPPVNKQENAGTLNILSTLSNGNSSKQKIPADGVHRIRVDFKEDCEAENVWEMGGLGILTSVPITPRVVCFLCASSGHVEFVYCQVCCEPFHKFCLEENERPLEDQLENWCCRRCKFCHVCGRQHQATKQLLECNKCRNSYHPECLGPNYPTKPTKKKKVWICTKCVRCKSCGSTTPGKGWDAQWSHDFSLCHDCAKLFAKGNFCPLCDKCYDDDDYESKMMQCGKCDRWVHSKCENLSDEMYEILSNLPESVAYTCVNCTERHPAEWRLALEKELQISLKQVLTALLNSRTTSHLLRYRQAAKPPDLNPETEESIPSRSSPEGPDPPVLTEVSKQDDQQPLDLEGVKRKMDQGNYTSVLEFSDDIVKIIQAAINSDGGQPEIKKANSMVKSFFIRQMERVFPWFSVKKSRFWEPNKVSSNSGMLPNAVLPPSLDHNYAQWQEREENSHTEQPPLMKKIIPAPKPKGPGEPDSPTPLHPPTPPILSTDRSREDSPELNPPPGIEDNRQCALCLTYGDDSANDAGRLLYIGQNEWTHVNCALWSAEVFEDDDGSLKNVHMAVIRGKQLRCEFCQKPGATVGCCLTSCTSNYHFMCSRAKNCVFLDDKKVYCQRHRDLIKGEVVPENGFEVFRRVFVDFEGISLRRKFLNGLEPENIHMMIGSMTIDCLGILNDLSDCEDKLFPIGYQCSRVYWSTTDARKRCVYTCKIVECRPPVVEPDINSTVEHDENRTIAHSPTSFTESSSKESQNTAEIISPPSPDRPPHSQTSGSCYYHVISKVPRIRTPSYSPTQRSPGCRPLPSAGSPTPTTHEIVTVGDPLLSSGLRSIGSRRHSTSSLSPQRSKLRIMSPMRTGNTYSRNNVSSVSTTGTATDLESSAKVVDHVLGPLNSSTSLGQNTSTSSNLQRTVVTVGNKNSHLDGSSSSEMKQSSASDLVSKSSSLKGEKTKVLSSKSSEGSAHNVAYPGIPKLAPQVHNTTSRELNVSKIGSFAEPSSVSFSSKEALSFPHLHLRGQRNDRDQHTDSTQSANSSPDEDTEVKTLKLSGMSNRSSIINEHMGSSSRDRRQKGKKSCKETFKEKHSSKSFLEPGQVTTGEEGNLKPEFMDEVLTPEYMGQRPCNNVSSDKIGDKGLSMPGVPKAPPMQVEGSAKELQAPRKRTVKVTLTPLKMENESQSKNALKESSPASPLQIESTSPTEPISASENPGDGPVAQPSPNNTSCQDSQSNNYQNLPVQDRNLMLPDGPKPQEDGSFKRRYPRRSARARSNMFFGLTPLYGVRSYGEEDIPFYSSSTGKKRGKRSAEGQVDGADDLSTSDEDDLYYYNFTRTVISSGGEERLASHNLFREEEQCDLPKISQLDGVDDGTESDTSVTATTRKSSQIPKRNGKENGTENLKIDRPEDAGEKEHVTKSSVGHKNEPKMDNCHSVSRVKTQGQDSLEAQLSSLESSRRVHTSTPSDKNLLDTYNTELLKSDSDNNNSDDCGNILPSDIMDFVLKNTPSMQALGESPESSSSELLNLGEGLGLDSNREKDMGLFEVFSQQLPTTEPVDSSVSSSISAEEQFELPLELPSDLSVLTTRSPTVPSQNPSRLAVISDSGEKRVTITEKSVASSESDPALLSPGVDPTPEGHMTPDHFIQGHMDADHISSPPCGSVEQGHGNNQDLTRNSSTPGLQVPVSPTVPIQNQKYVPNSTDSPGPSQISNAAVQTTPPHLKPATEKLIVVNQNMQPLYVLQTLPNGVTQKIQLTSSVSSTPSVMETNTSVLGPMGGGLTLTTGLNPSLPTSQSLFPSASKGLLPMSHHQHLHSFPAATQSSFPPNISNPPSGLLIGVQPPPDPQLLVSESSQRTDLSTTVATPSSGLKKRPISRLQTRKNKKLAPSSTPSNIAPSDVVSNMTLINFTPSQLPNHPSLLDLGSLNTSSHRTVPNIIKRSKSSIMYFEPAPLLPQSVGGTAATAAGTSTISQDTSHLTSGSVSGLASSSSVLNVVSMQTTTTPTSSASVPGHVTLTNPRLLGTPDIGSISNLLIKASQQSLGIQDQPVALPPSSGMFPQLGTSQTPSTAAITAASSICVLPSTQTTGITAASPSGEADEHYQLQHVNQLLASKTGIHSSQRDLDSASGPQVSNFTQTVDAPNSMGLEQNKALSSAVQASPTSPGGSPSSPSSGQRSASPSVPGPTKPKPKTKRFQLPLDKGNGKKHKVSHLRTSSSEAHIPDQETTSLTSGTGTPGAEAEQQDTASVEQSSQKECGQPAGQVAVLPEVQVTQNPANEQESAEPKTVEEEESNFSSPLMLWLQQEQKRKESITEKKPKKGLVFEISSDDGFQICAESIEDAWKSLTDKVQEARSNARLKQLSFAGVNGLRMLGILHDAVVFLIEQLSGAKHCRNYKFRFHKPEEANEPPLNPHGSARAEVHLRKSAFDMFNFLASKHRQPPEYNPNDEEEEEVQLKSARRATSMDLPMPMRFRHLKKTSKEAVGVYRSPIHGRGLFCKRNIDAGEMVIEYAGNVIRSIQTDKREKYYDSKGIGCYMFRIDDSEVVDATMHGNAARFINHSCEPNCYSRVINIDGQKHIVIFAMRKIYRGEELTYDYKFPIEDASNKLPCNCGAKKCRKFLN

Each compound was assayed against Histone-lysine N-methyltransferase 2A (Homo sapiens) (UniProt Q03164) (assay: qHTS Fluorescence Polarization Assay for Inhibitors of MLL CXXC domain - DNA interaction). Conditions: MLL-CXXC / FITC-HOXA9 DNA fluorescence polarization; series mostly up to 115 µM.
Summary of the method: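 Steps: dispense CXXC domain solution (7 uM) → pin compounds or unlabeled HOX-A9 DNA control → 5 min ambient → add FLSN-HOX-A9 solution (50 nM) → spin → 30 min ambient → fluorescence polarization. Tris pH 7.5/NaCl/DTT/BSA buffer.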
Potency is the fitted concentration of half-maximal effect.

SMILES	Potency
O=C1C(Cl)=C(N2CCC(C(=O)O)CC2)C(=O)c2ccccc21	inconclusive: 63.1 µM [inhibitor, single point]
CCOc1cc(CNCCc2ccc(S(N)(=O)=O)cc2)ccc1OCc1ccccc1	inconclusive: 31.6 µM [quencher, side channel, single point]
COc1ccc(C(=O)CC(=O)C(=O)Nc2ccccc2)cc1	inconclusive: 6.31 µM [fluorescent, side channel, full curve]
O=C(NCc1ccc(Cl)cc1)C1CCN(S(=O)(=O)N2CCOCC2)CC1	inconclusive: 28.2 µM [fluorescent, side channel, partial curve]
CCCCc1nc2ccccc2c(NC(=O)CN2CCCC2)c1CCC	inactive
O=C(/C=C/c1ccc(O)cc1)c1ccc(NC2=C(N3CCCCC3)C(=O)c3ccccc3C2=O)cc1	inconclusive: 63.1 µM [inhibitor, single point]
CCOC(=O)c1c(C)c(C(=O)OCC)n(C)c1C	inconclusive: 50.1 µM [fluorescent, side channel, single point]
COc1nccnc1NS(=O)(=O)c1ccc(NC(=S)NC(=O)/C=C/c2ccc(F)cc2)cc1	inconclusive: 10 µM [inhibitor, full curve, poor fit]
COc1ccc(-c2nn(C)c3sc(C(=O)NCCN(C)C)cc23)cc1OC	inconclusive: 11.2 µM [quencher, side channel, partial curve]
C[C@@H](NC(=O)[C@@H]1Cc2ccccc2CN1)C(=O)NCC1CCCO1 (some centres not stated)	inactive
Cc1ccc(C)c(NC(=O)c2ccccc2NS(=O)(=O)c2cc([N+](=O)[O-])ccc2C)c1	inactive
O=c1[nH]c(-[n+]2ccccc2)c(/C=N/NC([S-])=Nc2ccccc2)s1	active: 35.5 µM
NC(=NCc1ccc(Cl)c(Cl)c1)NC(=O)c1nc(Cl)c(N)nc1N	inconclusive: 28.2 µM [quencher, side channel, partial curve, poor fit]
O=C(N/N=C/c1cc(Br)c(O)c(Br)c1O)c1ccc2c(c1)OCCO2	inactive
CCOC(=O)Cc1cc(=O)n2[nH]c(C)c(-c3ccccc3)c2n1	inactive
COc1ccc(-c2noc(CNS(=O)(=O)c3ccccc3)n2)cc1	inconclusive: 14.1 µM [fluorescent, side channel, single point]
Cc1cc(C(=O)COc2ccccc2C(N)=O)c(C)n1C	inconclusive: 1 µM [fluorescent, side channel, full curve]
Cn1c(=O)n(C)c2cc([N+](=O)[O-])c(N3CCN(C(=O)c4cccc(F)c4)CC3)cc21	inconclusive: 14.1 µM [quencher, side channel, single point]
O=C(CCC1CCCNC1)c1ccccc1 (configuration not stated)	inactive
O=C(N/N=C/c1c(O)ccc2ccccc12)c1cccnc1	inconclusive: 7.08 µM [fluorescent, side channel, partial curve, poor fit]
CNC(=O)c1cc(Nc2nnc(-c3ccc(C)c(S(N)(=O)=O)c3)c3ccccc23)ccc1OC	inconclusive: 7.08 µM [inhibitor, full curve]

Eleven structures already listed, sorted by count of non-hydrogen atoms, ascending.
SMILES	Potency
O=C(CCC1CCCNC1)c1ccccc1 (configuration not stated)	inactive
Cc1cc(C(=O)COc2ccccc2C(N)=O)c(C)n1C	inconclusive: 1 µM [fluorescent, side channel, full curve]
O=C(N/N=C/c1c(O)ccc2ccccc12)c1cccnc1	inconclusive: 7.08 µM [fluorescent, side channel, partial curve, poor fit]
NC(=NCc1ccc(Cl)c(Cl)c1)NC(=O)c1nc(Cl)c(N)nc1N	inconclusive: 28.2 µM [quencher, side channel, partial curve, poor fit]
O=C(N/N=C/c1cc(Br)c(O)c(Br)c1O)c1ccc2c(c1)OCCO2	inactive
O=C(NCc1ccc(Cl)cc1)C1CCN(S(=O)(=O)N2CCOCC2)CC1	inconclusive: 28.2 µM [fluorescent, side channel, partial curve]
Cn1c(=O)n(C)c2cc([N+](=O)[O-])c(N3CCN(C(=O)c4cccc(F)c4)CC3)cc21	inconclusive: 14.1 µM [quencher, side channel, single point]
CCOc1cc(CNCCc2ccc(S(N)(=O)=O)cc2)ccc1OCc1ccccc1	inconclusive: 31.6 µM [quencher, side channel, single point]
COc1nccnc1NS(=O)(=O)c1ccc(NC(=S)NC(=O)/C=C/c2ccc(F)cc2)cc1	inconclusive: 10 µM [inhibitor, full curve, poor fit]
CNC(=O)c1cc(Nc2nnc(-c3ccc(C)c(S(N)(=O)=O)c3)c3ccccc23)ccc1OC	inconclusive: 7.08 µM [inhibitor, full curve]
O=C(/C=C/c1ccc(O)cc1)c1ccc(NC2=C(N3CCCCC3)C(=O)c3ccccc3C2=O)cc1	inconclusive: 63.1 µM [inhibitor, single point]

Later entries:

SMILES	Potency
O=C1/C(=C/c2ccco2)Oc2c1ccc(O)c2CN1CCCCC1	inconclusive: 7.94 µM [fluorescent, side channel, single point]
CCN(CC)c1ccc(/C=N/OCC(=O)Nc2cccc(C)c2)cc1	inconclusive: 31.6 µM [fluorescent, side channel, single point]
Cc1cccc(CN2CCC(n3nccc3NC(=O)c3ccccc3C)CC2)n1	inactive
Cc1cc2nc(/C(C#N)=C\c3ccc(-c4ccccc4C(=O)O)o3)[nH]c2cc1C	inconclusive: 2.82 µM [fluorescent, side channel, full curve]
O=C(Nc1ccccc1)c1ccc(S(=O)(=O)N2CCOCC2)cc1	inconclusive: 14.1 µM [quencher, side channel, single point]
O=C(Nc1ccc(Cl)cc1)Nc1nnc(CSCc2ccccc2)s1	inactive
COc1cccc(CN2CCC(C(=O)Nc3ccc(-c4cccc(C)c4)cc3)CC2)c1O	inconclusive: 14.1 µM [quencher, side channel, partial curve]
O=C(CS(=O)Cc1ccccc1Cl)Nc1ccccc1Cl (configuration not stated)	inconclusive: 44.7 µM [fluorescent, side channel, single point]
N=C1S/C(=C\c2ccc(-c3cccc(Cl)c3)o2)C(=O)N1c1nccs1	inconclusive: 17.8 µM [fluorescent, side channel, partial curve]
O=c1oc2cc(OCc3ccc(F)cc3F)ccc2cc1-c1ccccn1	inactive
CC1=C(C(=O)OCC(C)C)C(c2cc3c(cc2Br)OCO3)NC(=O)N1C (configuration not stated)	inactive
CCOC(=O)C1CCN(c2cc3c(cc2NC(=O)c2ccccc2F)n(C)c(=O)n3C)CC1	inconclusive: 70.8 µM [quencher, side channel, single point]
O=C1C=Cc2ccccc2/C1=C/c1[nH]c(=O)[nH]c1O	inconclusive: 35.5 µM [fluorescent, partial curve]
COc1cccc(NC(=O)CSc2nnc(-c3ccoc3C)n2-c2ccccc2)c1	inactive
Cn1c(=O)cc(Nc2ccc(Cl)cc2)[nH]c1=O	inconclusive: 35.5 µM [inhibitor, single point]
CC(OC(=O)c1ccc([N+](=O)[O-])s1)C(=O)Nc1ncc(Cl)cc1Cl (configuration not stated)	inconclusive: 14.1 µM [inhibitor, single point]
COC(=O)c1ccc(NC(=O)CNCc2ccncc2)cc1	inactive
Cc1cccc(C)c1NCC(=O)N1CCN(Cc2ccccc2)CC1	inconclusive: 63.1 µM [fluorescent, side channel, single point]
Cc1ccccc1NC(=O)Cn1c(C)nc2ccc(N)cc2c1=O	inactive
CCOC(=O)C1CCN(C(=O)/C(C)=C\c2ccccc2)CC1	inconclusive: 70.8 µM [inhibitor, single point]
Cn1c(=O)[nH]c(=O)c2c1[nH]c(=S)n2Cc1ccccc1	inconclusive: 31.6 µM [fluorescent, side channel, single point]

SMILES	Potency
CCCN(Cc1ccccc1)C(=S)Nc1cccc(C)c1C	inconclusive: 1.26 µM [fluorescent, side channel, partial curve, poor fit]
O=C(O)c1ccccc1Nc1ccc([N+](=O)[O-])c2nonc12	inconclusive: 17.8 µM [fluorescent, side channel, partial curve]
O=C(Nc1ccc(Cl)cc1)/C(=C/c1ccc([N+](=O)[O-])cc1)c1nc2ccccc2s1	inconclusive: 31.6 µM [fluorescent, side channel, partial curve]
Cc1nc(S/C(=C\c2ccc(OCc3ccccc3Cl)cc2)C(=O)O)n[nH]1	inconclusive: 5.62 µM [inhibitor, full curve, poor fit]
CCN(CC)c1ccc2cc(C(=O)Nc3ccc(-n4cnnn4)c(OC)c3)c(=O)oc2c1	inconclusive: 28.2 µM [fluorescent, side channel, partial curve]
COc1ccc(-c2nn(C)c(=O)c3ccccc23)cc1CNS(C)(=O)=O	inactive
CCOc1ccc(NC(=O)CN2CCN(CC(=O)Nc3ccc(F)c(F)c3)CC2)cc1	inactive
O=C(COC(=O)c1ccccn1)c1ccc([N+](=O)[O-])cc1	inconclusive: 89.1 µM [quencher, side channel, single point]
COc1ccccc1N1C(=O)C2C(C(=O)c3ccccc3)=NN(c3ccccc3)C2C1=O (configuration not stated)	inconclusive: 35.5 µM [fluorescent, side channel, partial curve]
Cc1ccc(NC(=S)N2CCN(c3ccccn3)CC2)c(C)c1	inconclusive: 63.1 µM [fluorescent, side channel, single point]
COC(=O)c1cc(OC)c(OC)cc1NC(=O)Nc1cccc(C(C)=O)c1	inactive
CCCN1C(=O)/C(=C/c2c(NCCCOCC)nc3c(C)cccn3c2=O)SC1=S	inconclusive: 6.31 µM [fluorescent, side channel, full curve]
CCN1CCN(CCOc2ccccc2-c2ccccc2)CC1	inconclusive: 44.7 µM [inhibitor, single point]
C/C(Cl)=C\Cn1c(N2CCCC2)nc2c1c(=O)n(C)c(=O)n2C	inconclusive: 31.6 µM [fluorescent, single point]
NC(=S)N=Nc1c(O)n(Cc2ccc(Br)cc2)c2ccccc12	inconclusive: 89.1 µM [quencher, side channel, single point]
Cc1ccc(NC(=O)Nc2nc3ccccc3s2)cc1NC(=O)Nc1nc2ccccc2s1	inconclusive: 39.8 µM [fluorescent, side channel, single point]
C=CCNC(=O)/C(=C\c1ccc(OC)cc1)NC(=O)c1ccc([N+](=O)[O-])cc1	inactive
O=C1NC(=O)/C(=C/c2ccc(-c3cc(C(=O)O)ccc3Cl)o2)S1	inconclusive: 31.6 µM [inhibitor, partial curve]
CC1=NN(c2ccccc2)C(=O)/C1=C/c1c(O)n(-c2ccc(F)cc2)[nH]c1=O	inconclusive: 12.6 µM [inhibitor, single point]
CCOc1cc(NC(=S)NCc2ccco2)c(OCC)cc1NC(=O)CC(C)C	inconclusive: 70.8 µM [fluorescent, side channel, single point]
